The assay relates to Escherichia coli BW25113. Put plainly: plate-normalized OD600 growth (mean of duplicates) (OD600 (normalized)); higher = more growth (less inhibition). Conditions: 10 µM. The procedure: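 E. coli BW25113 in LB (100 µl, 96-well, no shaking) was exposed to 10 µM of each compound from a ~30,000-member library and grown at 37°C for 24 h or 15°C for 48 h, in duplicate. Growth was read as OD600 and the duplicate ODs were normalized across screening plates to correct plate-to-plate variation. Hits were >3σ below the mean OD600 at 15°C and <2σ below the mean at 37°C.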

Over roughly 2,300 compounds, “plate-normalized OD600 growth (mean of duplicates)” has its median near 0.29; the lowest 2% begin near 0.22. The list shows a part of the results.

Take `CCC(C)(C)C1CCc2sc3nc[nH]c(=O)c3c2C1` (configuration not stated): the “plate-normalized OD600 growth” value by setting is: (temperature: 15°C, 48 h) 0.248; (temperature: 37°C, 24 h) 0.626.

In the case of `COC1(c2sc3c(N4CCOCC4)nc(-c4cnc(N)nc4)nc3c2C)COC1`, the “plate-normalized OD600 growth” value (temperature: 15°C, 48 h) was 0.243 and the “plate-normalized OD600 growth” value (temperature: 37°C, 24 h) stood at 0.622.

As to `CCCCOc1ccc(S(=O)(=O)NC(=O)NCc2ccc(OCC)cc2)cc1`, the “plate-normalized OD600 growth” value by setting is: (temperature: 15°C, 48 h) 0.258; (temperature: 37°C, 24 h) 0.623.

Take `N#CC1=CNc2ccccc2N=C1N`: the “plate-normalized OD600 growth” value runs as follows: (temperature: 15°C, 48 h) 0.252; (temperature: 37°C, 24 h) 0.625.

Regarding `CCN(CC)C(=O)c1[nH]c(C)c(C)c1C`, the “plate-normalized OD600 growth” value came to 0.219 (temperature: 15°C, 48 h) and 0.611 (temperature: 37°C, 24 h).

Turning to `CSC1=NCN(Cc2ccccc2)CN1`, the “plate-normalized OD600 growth” value is, setting by setting: (temperature: 15°C, 48 h) 0.258; (temperature: 37°C, 24 h) 0.62.

`COc1ccc(-c2csc(N=Cc3c[nH]c4ccccc34)n2)cc1`: the “plate-normalized OD600 growth” value is, setting by setting: (temperature: 15°C, 48 h) 0.254; (temperature: 37°C, 24 h) 0.602.

For `CSc1ccccc1NC(=O)c1cc2n(n1)C(C(F)(F)F)C1CCc3ccccc3C1N2` (configuration not stated), the “plate-normalized OD600 growth” value (temperature: 15°C, 48 h) was determined as 0.25 and the “plate-normalized OD600 growth” value (temperature: 37°C, 24 h) is 0.603.

Regarding `CCOC(=O)C(C=NNC(=O)c1ccc([N+](=O)[O-])cc1)=C(C)O`, the “plate-normalized OD600 growth” value (temperature: 15°C, 48 h) was found to be 0.258 and the “plate-normalized OD600 growth” value (temperature: 37°C, 24 h) came out at 0.653.

As for `O=C1Nc2ccccc2/C1=N\n1c(C(F)(F)F)n[nH]c1=S`, the “plate-normalized OD600 growth” value by setting is: (temperature: 15°C, 48 h) 0.268; (temperature: 37°C, 24 h) 0.649.

Regarding `COc1ccc(/C=N/NC(=O)COc2ccc(Cl)cc2)cc1I`, the “plate-normalized OD600 growth” value (temperature: 15°C, 48 h) worked out at 0.257 and the “plate-normalized OD600 growth” value (temperature: 37°C, 24 h) came out at 0.62.

The record behind these values is the supplement of paper PMC4371806.
